In PubChem BioAssay AID504444 (National Center for Advancing Translational Sciences (NCATS), 2011):
Hit rate of the full screen: of about 360,000 compounds, about 7,500 (2.1%) were called active. The inconclusive results got no clear call from the source; some entries with a clear call stand among them for comparison. Calls come from the whole dose curve; as a rule, active = well fitted inhibition curve with a large enough effect; inconclusive = small, poorly fitted or top-dose-only effect, or effect the other way; inactive = flat fitted curve, though single readings scatter. A potency beside an inconclusive call is a rough fit, not a confirmed value.

Assay: Nrf2 qHTS screen for inhibitors; note: nearly all actives have a fitted effect of over 60% in size
Conditions: A549 ARE-Fluc reporter, luciferase luminescence, 18-24 h; activity change, negative = inhibition: at 46 µM (top of the series)
In short: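 Quantitative HTS in A549 cells stably bearing an antioxidant response element-firefly luciferase construct. Inhibition of Nrf2-driven transcription was scored by luminescence after 18-24 h of compound exposure at 37 °C.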
% is set by controls: 0 for no effect and ±100 for the full control effect; potency is the fitted concentration of half-maximal effect.

SMILES	Potency	activity change, negative = inhibition
O=C(CCn1nnc2ccccc21)Nc1nnc(Cc2ccccc2)s1	inconclusive: 32.6 µM [falling, partial curve, poor fit]	–
CC[C@]12c3[nH]c4cc(-c5ccco5)ccc4c3CCN1C(=O)[C@@H](CC(=O)NCc1cccc(C(F)(F)F)c1)C[C@@H]2C(=O)N1CCN(C(=O)c2ccco2)CC1	inconclusive: 18.4 µM [falling, single point]	–
COCC(=O)Nc1ccccc1C(=O)Nc1ccc(OC)cc1	inconclusive: 16.4 µM [activator, partial curve]	–
CCOc1ccc(Nc2cc3n(c(=O)n2)CCc2cc(OC)c(OC)cc2-3)cc1	inconclusive: 9.2 µM [falling, partial curve, poor fit]	–
Cc1cn(CC(=O)NCC2CCCO2)c(=O)[nH]c1=O (stereo not given)	inconclusive: 6.51 µM [falling, single point]	–
CCn1c(=O)cc(SCC(=O)NCCc2ccc(OC)cc2OC)c2ccccc21	–	inactive: -25.6% [at 9.27 µM]
COCCCNC(=O)CSc1nc(-c2ccccc2)[nH]c1-c1ccc(C)cc1	inconclusive: 18.4 µM [falling, partial curve, poor fit]	–
CC(C)NC(=O)N(C)C[C@H]1Oc2c(NC(=O)Nc3ccc(C(F)(F)F)cc3)cccc2C(=O)N([C@H](C)CO)C[C@@H]1C	inconclusive: 20.6 µM [falling, single point]	–
C=CC[N+]1(CC#CCOC(c2ccccc2)c2ccccc2)CCOCC1	inconclusive: 20.6 µM [falling, single point]	–
O=C(NCCc1cccc(C(F)(F)F)c1)C1CCC(=O)N(CCc2cccc(F)c2)C1 (stereo not given)	inconclusive: 29.1 µM [falling, partial curve, poor fit]	–
Cc1noc(C)c1NC(=O)N(C)C[C@H]1Oc2c(NS(=O)(=O)c3cccs3)cccc2C(=O)N([C@H](C)CO)C[C@@H]1C	inconclusive: 20.6 µM [activator, partial curve, poor fit]	–
CCCc1ccc(OCCNC(=O)C2CCCCC2)cc1	inconclusive: 29.1 µM [activator, single point]	–
Cc1ccc(OCCN(C)C(=O)C2CCC(=O)N(Cc3ccccc3F)C2)cc1 (stereo not given)	inconclusive: 5.8 µM [activator, partial curve, poor fit]	–
O=C1C=C(Nc2ccccc2)C(=O)c2ccccc21	inconclusive: 18.4 µM [falling, single point]	–
CCCc1nc2ccc(NC(=O)c3cccs3)cc2c(=O)n1Cc1ccc(Cl)cc1	inconclusive: 29.1 µM [falling, single point]	–
CN(C)C(CNc1ccc(C(F)(F)F)cn1)c1ccccc1 (stereo not given)	inconclusive: 23.1 µM [activator, single point]	–
Cc1cc(NC(=O)COC(=O)c2ccc(OC(F)(F)F)cc2)no1	inactive	–
CCn1c(Cc2ccccc2)nnc1SCC(=O)Nc1ccccc1	inconclusive: 3.26 µM [activator, partial curve]	–
Cc1cccc(N2CCCn3c2nc2c3c(=O)n(CCN3CCOCC3)c(=O)n2C)c1	inconclusive: 29.1 µM [falling, single point]	–
Cn1cc(-c2cccc(Cl)c2)cc(C#N)c1=O	inactive	–

Part of the list above, in markdown:

| SMILES | Potency | activity change, negative = inhibition |
| --- | --- | --- |
| Cc1cccc(N2CCCn3c2nc2c3c(=O)n(CCN3CCOCC3)c(=O)n2C)c1 | inconclusive: 29.1 µM [falling, single point] | – |
| Cn1cc(-c2cccc(Cl)c2)cc(C#N)c1=O | inactive | – |

(listing goes on)

SMILES	Potency	activity change, negative = inhibition
Cc1cc(O)c(C(C)C)cc1C1(c2cc(C(C)C)c(O)cc2C)OC(=O)c2ccccc21	inconclusive: 20.6 µM [falling, single point]	–
CC(C)N(C(=O)COC(=O)c1ccccc1C(=O)c1ccc(Cl)c([N+](=O)[O-])c1)C(C)C	inconclusive: 29.1 µM [falling, single point]	–
O=C(Nc1ccccc1F)c1ccc(Cn2cc(Cl)cn2)cc1	inconclusive: 13 µM [activator, partial curve]	–
C[C@@]12CC(=O)NC1N(C(=O)c1cccc(C(F)(F)F)c1)C(c1ccccc1OC(=O)c1cccc(C(F)(F)F)c1)C2 (stereo not given in full)	inactive	–
Cc1ccc(NC(=O)CCC(=O)N2Cc3ccccc3Oc3ncccc32)cc1	inconclusive: 5.8 µM [activator, partial curve]	–
COc1ccc(NC(=O)Cn2c(SCc3ccc(C)cc3)nc3cccnc32)c(OC)c1	inconclusive: 2.06 µM [activator, full curve]	–
COc1ccc(Br)c(C(=O)Nc2nc3ccccc3[nH]2)c1	inconclusive: 4.61 µM [activator, full curve]	–
CCc1c(C)nc2cc(-c3ccc(OC)cc3)[nH]n2c1=O	inactive	–
COc1ccc(-c2nc(NC(=O)c3ccc(OCC(=O)Nc4ccc(F)cc4)c(OC)c3)sc2C)cc1	active: 14.6 µM	–
O=C1CC(c2ccc(Cl)cc2)Sc2nc(-c3ccc(F)cc3)nn21 (stereo not given)	inactive	–
COc1ccccc1N1CCN(C(=O)CSc2nnc(C)n2C2CC2)CC1	inactive	–
CCOc1ccc(CNS(=O)(=O)c2cc(-c3cc(C)no3)ccc2C)cc1OC	inactive	–
COc1cccc(NS(=O)(=O)c2ccc3c(c2)n(C)c(=O)c(=O)n3C)c1	inconclusive: 1.16 µM [falling, full curve]	–
CCCCCCN1C(=O)CC(NC(=O)OCC2c3ccccc3-c3ccccc32)C/C=C\C1C(C)C (stereo not given)	inconclusive: 29.1 µM [falling, single point]	–
O=[N+]([O-])c1ccc(/C=N/Nc2nc3ccccc3o2)cc1	inconclusive: 5.8 µM [activator, partial curve, poor fit]	–
Cn1c(N2CCN(C(c3ccccc3)c3ccccc3)CC2)nc2ccccc21	inconclusive: 8.2 µM [falling, partial curve, poor fit]	–
CCC(C)NC(=O)C1CCCN(S(=O)(=O)c2ccc3c(c2)CC(C)N3C(=O)C2CC2)C1 (stereo not given)	inconclusive: 7.31 µM [falling, partial curve]	–
Cc1cccc(S(=O)(=O)c2cn(Cc3ccccc3)c3cc(N4CCCCC4C)c(F)cc3c2=O)c1 (stereo not given)	inactive	–
CC(=O)c1cnc2cc(-c3cccc(Br)c3)nn2c1C	inconclusive: 11.6 µM [activator, partial curve]	–
Cc1ccccc1N=C1SC(CC(=O)Nc2ccc3ccccc3c2)C(=O)N1Cc1ccccn1 (stereo not given)	inconclusive: 20.6 µM [falling, single point]	–
